No constants are given. Whether binding was seen depends on the method and setting. For some assays here: In cells and extracts the contact can be indirect. Some results given as binding are weak or reduced against the parent protein; the word gives no strength. Sequences can lack the tags named with a protein.

Chains of the proteins cited; added tags and fusions are not shown.
UniProt Q07157: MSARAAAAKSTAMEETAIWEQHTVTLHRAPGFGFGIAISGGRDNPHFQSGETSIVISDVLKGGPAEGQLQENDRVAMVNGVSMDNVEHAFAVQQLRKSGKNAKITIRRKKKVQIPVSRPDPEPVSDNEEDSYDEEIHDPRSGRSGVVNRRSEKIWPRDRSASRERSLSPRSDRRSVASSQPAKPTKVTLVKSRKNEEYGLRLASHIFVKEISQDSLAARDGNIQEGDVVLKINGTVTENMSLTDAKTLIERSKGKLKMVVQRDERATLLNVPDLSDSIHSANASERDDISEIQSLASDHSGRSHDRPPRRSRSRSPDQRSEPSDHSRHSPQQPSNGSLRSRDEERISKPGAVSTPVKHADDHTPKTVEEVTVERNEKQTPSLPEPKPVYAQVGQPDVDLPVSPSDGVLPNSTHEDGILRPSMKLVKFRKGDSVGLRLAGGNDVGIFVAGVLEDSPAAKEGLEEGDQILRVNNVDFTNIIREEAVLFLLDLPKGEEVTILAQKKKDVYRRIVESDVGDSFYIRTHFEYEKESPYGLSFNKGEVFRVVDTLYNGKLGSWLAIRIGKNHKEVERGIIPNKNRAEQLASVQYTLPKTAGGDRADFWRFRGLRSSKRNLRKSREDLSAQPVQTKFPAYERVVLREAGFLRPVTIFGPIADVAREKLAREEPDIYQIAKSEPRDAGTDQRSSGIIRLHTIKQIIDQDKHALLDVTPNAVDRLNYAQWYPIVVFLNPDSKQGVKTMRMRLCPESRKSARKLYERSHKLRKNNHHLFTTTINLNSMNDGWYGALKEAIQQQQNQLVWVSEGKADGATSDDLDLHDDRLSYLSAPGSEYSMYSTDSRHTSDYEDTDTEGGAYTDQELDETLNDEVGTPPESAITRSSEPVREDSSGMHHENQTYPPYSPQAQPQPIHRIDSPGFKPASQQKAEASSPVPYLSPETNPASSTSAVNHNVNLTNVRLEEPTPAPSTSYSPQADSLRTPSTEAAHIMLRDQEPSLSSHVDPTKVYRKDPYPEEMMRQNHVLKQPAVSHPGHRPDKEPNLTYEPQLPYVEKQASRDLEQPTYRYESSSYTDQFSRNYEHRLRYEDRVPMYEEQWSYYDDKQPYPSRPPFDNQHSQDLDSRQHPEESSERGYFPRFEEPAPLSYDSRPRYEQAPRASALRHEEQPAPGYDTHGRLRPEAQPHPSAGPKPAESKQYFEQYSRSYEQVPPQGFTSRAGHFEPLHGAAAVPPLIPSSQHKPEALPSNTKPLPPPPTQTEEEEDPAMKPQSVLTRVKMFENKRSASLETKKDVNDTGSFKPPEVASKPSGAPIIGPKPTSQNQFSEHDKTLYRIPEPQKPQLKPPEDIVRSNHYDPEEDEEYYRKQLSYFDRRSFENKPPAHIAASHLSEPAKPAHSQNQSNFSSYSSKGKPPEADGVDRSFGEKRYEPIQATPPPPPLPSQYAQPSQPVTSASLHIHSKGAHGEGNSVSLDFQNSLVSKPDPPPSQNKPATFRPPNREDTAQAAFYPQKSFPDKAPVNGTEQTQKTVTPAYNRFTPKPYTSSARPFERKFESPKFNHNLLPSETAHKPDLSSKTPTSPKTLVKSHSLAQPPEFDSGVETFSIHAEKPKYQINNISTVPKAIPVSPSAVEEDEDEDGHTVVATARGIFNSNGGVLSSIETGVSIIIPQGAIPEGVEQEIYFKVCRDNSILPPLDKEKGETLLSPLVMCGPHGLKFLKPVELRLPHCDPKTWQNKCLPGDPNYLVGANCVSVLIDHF

For experiment [1], the target named is T1, GST-CTR-Cwt fusion protein (GST fused to the intracellular C-terminal domain of CTRwt, aa 441-476) (human) (UniProt P30988).
T1 sequence (looked up): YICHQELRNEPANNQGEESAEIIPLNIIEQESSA
Nature of the experiment: overlay (far Western) assay: lysates on PVDF membrane incubated with GST-CTRwt fusion protein, GST immunoblot.

For experiment [2], the target named is ZO-1wt-YFP (wild-type ZO-1 fused to yellow fluorescent protein, ZO-1wt-EYFP-N1) (UniProt Q07157). The experiment can be described thus: acceptor photobleaching FRET microscopy in live PC-31 cells.
Experiment [3] addresses zonula occludens-1 (ZO-1), endogenous protein of prostate cancer cells and tumor specimens (UniProt Q07157). The experiment can be described thus: GST pull-down from PC-3 cell lysates, ZO-1 immunoblot. (In western blotting, separated proteins are transferred to a membrane and probed.)
Experiment [4] has the same target. The experiment can be described thus: GST pull-down from PC-3 cell lysates, ZO-1 immunoblot (told again in Example 22).
Experiment [5] shares this target. Nature of the experiment: GST pull-down from PC-3 cell lysates, ZO-1 immunoblot (legend of FIG. 3A).

With “ZO-1wt-MYC (wild-type ZO-1, Myc tagged at the C-terminal) (from UniProt Q07157 1-1748)”, the binding entry in experiment [1] was “binds”.

B1: CTRwt-CFP (wild-type calcitonin receptor fused to cyan fluorescent protein, CTRwt-ECFP-N1) (receptor, human, UniProt P30988 25-474, looked up, not shown: large carriers)
chain: AFSNQTYPTIEPKPFLYVVGRKKMMDAQYKCYDRMQQLPAYQGEGPYCNRTWDGWLCWDDTPAGVLSYQFCPDYFPDFDPSEKVTKYCDEKGVWFKHPENNRTWSNYTMCNAFTPEKLKNAYVLYYLAIVGHSLSIFTLVISLGIFVFFRSLGCQRVTLHKNMFLTYILNSMIIIIHLVEVVPNGELVRRDPVSCKILHFFHQYMMACNYFWMLCEGIYLHTLIVVAVFTEKQRLRWYYLLGWGFPLVPTTIHAITRAVYFNDNCWLSVETHLLYIIHGPVMAALVVNFFFLLNIVRVLVTKMRETHEAESHMYLKAVKATMILVPLLGIQFVVFPWRPSNKMLGKIYDYVMHSLIHFQGFFVATIYCFCNNEVQTTVKRQWAQFKIQWNQRWGRRPSNRSARAAAAAAEAGDIPIYICHQELRNEPANNQGEESAEIIPLNIIEQESSA
As for B1, the binding entry in experiment [2] was “binds”.

B2: GST-CTR-Cwt fusion protein (GST fused to the intracellular C-terminal domain of CTRwt, aa 441-476) (peptide, human, UniProt P30988 441-474, looked up, not shown: a dimerising Fc or GST)
chain: T1 sequence (looked up)
For B2, the binding entry in experiment [3], in experiment [4] and in experiment [5] was “binds” throughout.

Source of the values: patent US20140286952A1 (BOARD OF SUPERVISORS FOR THE UNIVERSITY OF LOUISIA SYSTEM …, published 2014).
